Measured values reported in the supplement of paper PMC10398353.
Where “and” joins values, the source holds several entries; their conditions need not be identical. Equal values may be shown once. Where a name gives a salt, the structure may show the parent alone. ± gives the standard deviation of the averaged measurements. This is one part of the list. The data scatter; read single values as rough.

Tested on: Salmonella enterica serovar Typhimurium ST313 D23580
Test: normalized bacterial growth (OD600 20 h minus 0 h, interquartile-mean normalized) (fraction of plate interquartile mean); higher = more bacterial growth (less inhibition)
Conditions: LPM (pH 5.8, low phosphate, low Mg2+), concentration: 10 µM, temperature: 37 °C

| Compound | normalized bacterial growth |
| --- | --- |
| N[C@@H](Cc1c[nH]cn1)C(=O)O [L-Histidine hydrochloride] | 0.877 |
| CC(C[N+](C)(C)C)OC(N)=O (stereo not drawn) [Bethanechol chloride] | 1.15 |
| COc1cc(/C=C(\C#N)C(=O)c2ccc(O)c(O)c2)cc(I)c1O [I-OMe-Tyrphostin AG 538] | 0.903 |
| NCCc1cc[nH]n1 [Betazole hydrochloride] | 1.09 |
| Cc1c(NC(C)C)c(=O)n(-c2ccccc2)n1C | 1.18 |
| O=c1cc(-c2ccc(O)cc2)oc2cc(O[C@@H]3O[C@H](CO)[C@@H](O)[C@H](O)[C@H]3O)cc(O)c12 | 0.797 and 1.17 |
| COc1c2c(cc3occ(-c4ccc5c(c4)OCO5)c(=O)c13)OC(C)(C)C=C2 | 0.641 |
| CC1(C)O[C@H]2[C@H](O)C[C@](O)(C(N)=O)C[C@H]2O1 | 1.02 |
| CC(C)(C)c1cc(/C=C(\C#N)C(N)=S)cc(C(C)(C)C)c1O [Tyrphostin AG 879] | 0.933 |
| CCC(=O)NCC[C@@H]1CCc2ccc3c(c21)CCO3 | 1.39 |
| CC[C@H](/C=C/[C@@H](C)[C@H]1CC[C@H]2[C@@H]3CCC4=CC(=O)CC[C@]4(C)[C@H]3CC[C@]12C)C(C)C | 1.36 |
| COc1ccc(-c2coc3cc(O)cc(O)c3c2=O)cc1 | 0.977 |
| CN1Cc2sccc2C(c2ccc(O)c(O)c2)C1 (stereo not drawn) | 1.36 |
| COc1cc2c(cc1OC)C(=O)OC2 | 0.939 |
| COc1ccccc1N1CCN(CCN2C(=O)CC3(CCCC3)CC2=O)CC1 [BMY 7378 dihydrochloride] | 0.92 |
| OCC(O)CN1CCN(c2ccccc2)CC1 (stereo not drawn) | 1.19 |
| CN(C)CCC(c1ccc(Cl)cc1)c1ccccn1 (stereo not drawn) [()-Chlorpheniramine maleate] | 0.942 |
| C[C@H](O)C(=O)C1=Nc2c(nc(N)[nH]c2=O)NC1 [Sepiapterin] | 1.05 |
| COc1cc(N)c(Cl)cc1C(=O)NC1CCN(CCCOc2ccc(F)cc2)CC1OC (stereo not drawn) [Cisapride] | 0.918 |
| Nn1nnc2ccccc21 [1-Aminobenzotriazole] | 1.15 |
| CN(C)CCCC1(c2ccc(F)cc2)OCc2cc(C#N)ccc21 (stereo not drawn) | 1.07 |

| Compound | normalized bacterial growth |
| --- | --- |
| CN(C)CCCC1(c2ccc(F)cc2)OCc2cc(C#N)ccc21 (stereo not drawn) [Citalopram hydrobromide] | 0.588 |
| CCCC(CCC)C(=O)O [Valproic acid sodium] | 1.17 |
| Cc1onc(-c2ccccc2)c1C(=O)N[C@@H]1C(=O)N2[C@@H]1SC(C)(C)[C@@H]2C(=O)O | 1.3 |
| COc1ccccc1CNCCCCCCNCCCCCCCCNCCCCCCNCc1ccccc1OC [Methoctramine tetrahydrochloride] | 0.833 |
| Cc1c(OCC(F)(F)F)ccnc1C[S+]([O-])c1nc2ccccc2[nH]1 (stereo not drawn) [Lansoprazole] | 1.04 |
| O=C(/C=C/c1ccccc1)c1ccc(O)cc1O | 1.02 |
| [N-]=[N+]=Nc1ccc(C(=O)CSC[C@H](NC(=O)CC[C@H](N)C(=O)O)C(=O)NCC(=O)O)cc1 [S-(p-Azidophenacyl)glutathione] | 0.976 |
| CCCCCCCC/C=C\CCCCCCCC(=O)O [Oleic Acid] | 0.769 |
| CC(C)(C)NCC(O)c1ccc(O)c(CO)c1 (stereo not drawn) [Albuterol hemisulfate] | 1.05 |
| CC(C)(C)NCC(O)c1ccc(O)c(CO)c1 (stereo not drawn) [Salbutamol] | 1.19 |
| CCCCC[C@H](O)CC(=O)CCc1ccc(O)c(OC)c1 | 0.858 |
| O=C(O)c1ccccc1Nc1cccc(OCc2ccc3ccccc3n2)c1 | 0.991 |
| COc1cc(C(O)C(=O)O)ccc1O (stereo not drawn) [()-Vanillylmandelic acid] | 1.36 |
| COc1ccc2cc1Oc1ccc(cc1)C[C@H]1c3c(cc4c(c3Oc3cc5c(cc3OC)CCN(C)[C@@H]5C2)OCO4)CCN1C | 0.89 |
| c1ccc2c3c([nH]c2c1)[C@H]1[C@H]2CC[C@H]([C@@H]4CCCN[C@@H]42)N1CC3 | 0.918 |
| COc1ccc(CC(=O)c2ccc(O)cc2O)cc1 | 0.711 |
| COc1ccc(-c2cc(=O)c3c(O)cc(OC)c(OC)c3o2)c(OC)c1 | 0.829 |
| CC(=O)O[C@H]1Cc2ccccc2N(C(N)=O)c2ccccc21 | 1.01 |
| O=C(NCC1CCCCN1)c1cc(OCC(F)(F)F)ccc1OCC(F)(F)F (stereo not drawn) [Flecainide acetate] | 0.757 |
| CC1CCc2cc(F)cc3c(=O)c(C(=O)O)cn1c23 (stereo not drawn) | 0.262 |
| COc1cc2c(cc1OC)-c1c(oc3cc(O)cc(O)c3c1=O)CO2 | 1.08 |

| Compound | normalized bacterial growth |
| --- | --- |
| CCCCOc1ccc(OCCCN2CCOCC2)cc1 | 0.997 |
| CC(C)[C@H]1CC[C@H](C(=O)N[C@H](Cc2ccccc2)C(=O)O)CC1 | 0.994 |
| COC(=O)/C(=C1/OC(=O)C(c2ccccc2)=C1O)c1ccccc1 | 1.09 ± 0.41 |
| COc1c(O)cc2c(c1O)[C@@H]1O[C@H](CO)[C@@H](O)[C@H](O)[C@H]1OC2=O | 0.985 ± 0.2 |
| COc1c(O)cc2c(c1O)[C@@H]1O[C@H](CO)[C@@H](O)[C@H](O)[C@H]1OC2=O [Bergenin monohydrate] | 1.21 |
| COC(=O)[C@@H]1OC(=O)C2OC23[C@@]1(C)CCC1[C@]2(C)C(C[C@@H](O)[C@]13C)C(C)(C)[C@H](OC(C)=O)C[C@@H]2OC(C)=O (stereo partly drawn) | 1.13 |
| COc1ccc(CCCOC(Cn2ccnc2)c2ccc(OC)cc2)cc1 (stereo not drawn) | 0.858 |
| COc1ccc(C(C)=O)c(O)c1 | 0.933 |
| CCCOC(=O)c1c(-c2ccccc2)nc(CC)c(C(=O)SCC)c1CCC | 0.893 |
| COc1ccccc1OCCNCC(O)COc1cccc2[nH]c3ccccc3c12 (stereo not drawn) [Carvedilol] | 0.664 |
| COc1cc(-c2coc3cc(OCc4ccccc4)c(OC)c(O)c3c2=O)cc(O)c1OC | 0.919 |
| Cc1cc(O)cc(=O)o1 | 1.15 |
| S=P(N1CC1)(N1CC1)N1CC1 | 1.03 |
| COc1cc(N)c(Cl)cc1C(=O)NC1CCN(Cc2ccccc2)CC1 [Clebopride maleate] | 1.22 |
| CC(C)[C@@H]1CC[C@@H](C)C[C@H]1OC(=O)c1ccccc1 | 1.13 |
| CC(=O)O[C@H]1CC[C@]2(C)[C@H]3CC=C4[C@@H]5CC(C)(C)CC[C@]5(C(=O)O)CC[C@@]4(C)[C@]3(C)CC[C@H]2C1(C)C | 1.26 |
| CC(CN1c2ccccc2Sc2ccccc21)N(C)C (stereo not drawn) [Promethazine hydrochloride] | 0.681 |
| C=C1[C@H]2CC[C@@]3(C)[C@H](c4ccoc4)OC(=O)C[C@]13O[C@H]1C[C@H](O)C(C)(C)[C@H](CC(=O)OC)[C@]12C [3-DEOXY-3beta-HYDROXYANGOLENSIC ACID METHYL ESTER] | 1.03 |
| NS(=O)(=O)c1cc2c(cc1C(F)(F)F)NC(Cc1ccccc1)NS2(=O)=O (stereo not drawn) | 1.21 |
| O=C(c1ccc(OCCN2CCCCC2)cc1)c1c(-c2ccc(O)cc2)sc2cc(O)ccc12 [Raloxifene hydrochloride] | 1.38 |
| CC(C)=CCc1c(O)cc2occ(-c3ccc4c(c3)OCO4)c(=O)c2c1O | 1.09 |

| Compound | normalized bacterial growth |
| --- | --- |
| CCn1cc(C(=O)O)c(=O)c2cc(F)c(N3CCNCC3)cc21 [Norfloxacin] | 0.0574 |
| O=c1c(O)c(-c2ccc(O)c(O)c2)oc2c(O[C@@H]3O[C@H](CO)[C@@H](O)[C@H](O)[C@H]3O)c(O)cc(O)c12 | 0.923 |
| CN(C)c1nc(N)c(C(=O)NC(=N)N)nc1Cl ["5-(N,N-Dimethyl)amiloride hydrochloride"] | 1.02 |
| CC(=O)O[C@H]1C[C@@H](OC(C)=O)C(C)(C)C2CC(=O)[C@]3(C)C(CC[C@@]4(C)[C@H](C(=O)O)OC(=O)C5OC543)[C@]21C (stereo partly drawn) | 1.23 |
| Cc1nc2c(OCc3ccccc3)cccn2c1CC#N | 0.979 |
| CCCCCCCCCCCCCCCCC(C(=O)O)C(O)(CC(=O)O)C(=O)O (stereo not drawn) | 1.4 |
| CCOC(=O)C1=C(C)NC(C)=C(C(=O)OC)C1c1cccc([N+](=O)[O-])c1 (stereo not drawn) [Nitrendipine] | 1.09 |
| CC1(C)S[C@@H]2[C@H](N3C(=O)[C@@H](c4ccccc4)NC3(C)C)C(=O)N2[C@H]1C(=O)O | 1.13 |
| O=C(O)CCC/C=C\C[C@@H]1[C@@H](/C=C/[C@H](O)C2Cc3ccccc3C2)[C@@H](F)C[C@@H]1O | 0.746 |
| CC1=C(C(=O)O)N2C(=O)[C@@H](NC(=O)[C@H](N)c3ccc(O)cc3)[C@H]2SC1 [Cefadroxil] | 1 |
| CC1=C(C(=O)O)N2C(=O)[C@@H](NC(=O)[C@H](N)c3ccc(O)cc3)[C@H]2SC1 | 1.18 |
| OC[C@H]1O[C@@H](O[C@H]2[C@H](O)[C@@H](O)[C@@H](O)O[C@@H]2CO)[C@H](O)[C@@H](O)[C@@H]1O | 1.18 |
| C=CCN1CCCC1CNC(=O)c1cc2nn[nH]c2cc1OC (stereo not drawn) [Alizapride HCl] | 1.22 |
| CC1=CCCC(C)=CCC(C)(C)C=CC1 [HUMULENE (alpha)] | 0.943 |
| COc1cc(C)c2c(=O)cc(-c3ccccc3)oc2c1 | 0.714 |
| CC(C)(Oc1ccc(C2CC2(Cl)Cl)cc1)C(=O)O (stereo not drawn) [Ciprofibrate] | 0.988 |
| C[C@@H]1CC2C3C[C@H](F)C4=CC(=O)C=C[C@]4(C)[C@@]3(F)[C@@H](O)C[C@]2(C)[C@@]1(O)C(=O)COC(=O)C(C)(C)C (stereo partly drawn) | 0.96 |
| CCC(C)(CN(C)C)OC(=O)c1ccccc1 (stereo not drawn) [Amyleine hydrochloride] | 0.904 |
| C=C(NC(=O)C(=C)NC(=O)c1csc(C2=N[C@@H]3c4csc(n4)[C@H]4NC(=O)c5csc(n5)[C@H]([C@](C)(O)[C@@H](C)O)NC(=O)[C@H]5CSC(=N5)/C(=C/C)NC(=O)[C@H]([C@@H](C)O)NC(=O)c5csc(n5)[C@]3(CC2)NC(=O)[C@H](C)NC(=O)C(=C)NC(=O)[C@H](C)NC(=O)[C@H]([C@@H](C)CC)N[C@@H]2C=Cc3c([C@H](C)O)cc(nc3[C@H]2O)C(=O)O[C@@H]4C)n1)C(N)=O [Thiostrepton] | 0.924 |
| C=C(NC(=O)C(=C)NC(=O)c1csc(C2=N[C@@H]3c4csc(n4)[C@H]4NC(=O)c5csc(n5)[C@H]([C@](C)(O)[C@@H](C)O)NC(=O)[C@H]5CSC(=N5)/C(=C/C)NC(=O)[C@H]([C@@H](C)O)NC(=O)c5csc(n5)[C@]3(CC2)NC(=O)[C@H](C)NC(=O)C(=C)NC(=O)[C@H](C)NC(=O)[C@H]([C@@H](C)CC)N[C@@H]2C=Cc3c([C@H](C)O)cc(nc3[C@H]2O)C(=O)O[C@@H]4C)n1)C(N)=O | 0.802 |

Part of the list above, field by field:
CC1=C(C(=O)O)N2C(=O)[C@@H](NC(=O)[C@H](N)c3ccc(O)cc3)[C@H]2SC1 [Cefadroxil]
  normalized bacterial growth: 1
CC1=C(C(=O)O)N2C(=O)[C@@H](NC(=O)[C@H](N)c3ccc(O)cc3)[C@H]2SC1
  normalized bacterial growth: 1.18
OC[C@H]1O[C@@H](O[C@H]2[C@H](O)[C@@H](O)[C@@H](O)O[C@@H]2CO)[C@H](O)[C@@H](O)[C@@H]1O
  normalized bacterial growth: 1.18
